Two molecules from PMC5428976 can be followed below.

Sequences of proteins named here, by UniProt entry; tags and fusion partners are left off. A change or cut given only in a name is not applied to a line headed by its entry.
UniProt Q8TEB1: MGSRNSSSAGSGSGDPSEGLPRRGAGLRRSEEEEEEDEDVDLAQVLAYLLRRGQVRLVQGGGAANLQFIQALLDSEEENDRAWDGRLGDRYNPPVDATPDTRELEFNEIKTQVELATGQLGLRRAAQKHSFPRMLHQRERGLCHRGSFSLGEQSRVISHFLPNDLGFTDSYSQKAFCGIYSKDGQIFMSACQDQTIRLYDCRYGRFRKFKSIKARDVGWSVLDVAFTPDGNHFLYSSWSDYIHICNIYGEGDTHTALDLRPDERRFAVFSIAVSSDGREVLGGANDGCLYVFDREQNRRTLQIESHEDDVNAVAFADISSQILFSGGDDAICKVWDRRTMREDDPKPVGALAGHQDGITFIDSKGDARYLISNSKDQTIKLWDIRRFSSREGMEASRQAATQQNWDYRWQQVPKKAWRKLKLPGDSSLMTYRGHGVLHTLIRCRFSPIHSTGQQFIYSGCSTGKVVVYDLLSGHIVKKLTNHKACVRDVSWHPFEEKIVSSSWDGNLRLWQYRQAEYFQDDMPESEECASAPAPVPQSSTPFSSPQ

No constants are given. Whether binding was seen depends on the method and setting. In cells and extracts the contact can be indirect. Binding can be weak; no strength is given. Sequences can lack the tags named with a protein.

Assay in all cases: co-IP; HEK-293T cells transiently transfected, 24 h, no MG-132; lysed in 0.5% CHAPS buffer (10mM Tris/Cl pH 7.5, 150mM NaCl, 0.5mM EDTA); GFP:WDR23 (or GFP) precipitated with magnetic agarose GFP Trap beads, 1 hour at 4°C, three washes; Western blot; some cells treated with 250μM H2O2
In general terms: In western blotting, separated proteins are transferred to a membrane and probed.

For experiment [1], the target named is GFP:WDR23 isoform 1 (human), Q8TEB1. The settings on record: remark: other sources report otherwise.
Experiment [2] deals with GFP:WDR23 isoform 1 (H306Y) (human).
Experiment [3] addresses GFP:WDR23 isoform 2 (H306Y) (human) (UniProt Q8TEB1).
The target of experiment [4] is GFP:WDR23 isoform 2 (human) (UniProt Q8TEB1).

B1: HA-NRF2, Q16236 1-605 (protein)
chain: MMDLELPPPGLPSQQDMDLIDILWRQDIDLGVSREVFDFSQRRKEYELEKQKKLEKERQEQLQKEQEKAFFAQLQLDEETGEFLPIQPAQHIQSETSGSANYSQVAHIPKSDALYFDDCMQLLAQTFPFVDDNEVSSATFQSLVPDIPGHIESPVFIATNQAQSPETSVAQVAPVDLDGMQQDIEQVWEELLSIPELQCLNIENDKLVETTMVPSPEAKLTEVDNYHFYSSIPSMEKEVGNCSPHFLNAFEDSFSSILSTEDPNQLTVNSLNSDATVNTDFGDEFYSAFIAEPSISNSMPSPATLSHSLSELLNGPIDVSDLSLCKAFNQNHPESTAEFNDSDSGISLNTSPSVASPEHSVESSSYGDTLLGLSDSEVEELDSAPGSVKQNGPKTPVHSSGDMVQPLSPSQGQSTHVHDAQCENTPEKELPVSPGHRKTPFTKDKHSSRLEAHLTRDELRAKALHIPFPVEKIINLPVVDFNEMMSKEQFNEAQLALIRDIRRRGKNKVAAQNCRKRKLENIVELEQDLDHLKDEKEKLLKEKGENDKSLHLLKKQLSTLYLEVFSMLRDEDGKPYSPSEYSLQQTRDGNVFLVPKSKKPDVKKN
Consider B1, for which the binding result in experiment [1] was “binds”.

B2: HA-NRF2 (protein, UniProt Q16236 1-605)
chain: B1 chain
As for B2, the binding result in experiment [2], in experiment [3] and in experiment [4] was “binds” throughout.
